Test results taken from patent US9067920B2, “Compounds useful for inhibiting Chk1” (Eli Lilly and Company, priority 2010, dated 2015).
Counter-ions that a name gives are not always drawn. Some entries share one result that the patent states for a list of compounds.

Molecular target: T1, Chk1 (Homo sapiens, UniProt O14757)
T1 sequence (O14757 1-476): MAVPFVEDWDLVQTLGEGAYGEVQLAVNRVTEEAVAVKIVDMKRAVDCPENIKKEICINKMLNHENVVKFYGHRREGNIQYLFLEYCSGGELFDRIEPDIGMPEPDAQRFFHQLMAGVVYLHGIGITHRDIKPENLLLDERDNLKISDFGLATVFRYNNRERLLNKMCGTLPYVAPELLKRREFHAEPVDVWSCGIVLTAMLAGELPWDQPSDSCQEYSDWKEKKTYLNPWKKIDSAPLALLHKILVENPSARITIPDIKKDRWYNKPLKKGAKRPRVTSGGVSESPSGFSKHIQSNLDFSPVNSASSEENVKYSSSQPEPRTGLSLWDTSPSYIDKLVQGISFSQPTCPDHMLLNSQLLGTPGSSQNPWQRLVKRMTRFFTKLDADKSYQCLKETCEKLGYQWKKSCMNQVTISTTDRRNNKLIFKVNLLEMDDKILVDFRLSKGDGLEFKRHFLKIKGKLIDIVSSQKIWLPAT
Assay: Chk1 biochemical assay (CHK1/substrate peptide filter binding)
Conditions: 60 μM ATP, 0.75 nM Chk1 enzyme
Method: The effect of compounds on Chk1 biochemical activity can be determined using a CHK1/substrate peptide filter binding assay. In this assay, a synthetic peptide based on the amino acid sequence residues 206-225 of Cdc25, is used as a phospho-acceptor substrate for recombinant Chk1 protein kinase. Using γ-^33P-ATP as the phospho-donor substrate, Chk1 transfers the radioactive γ-^33phosphate group to the synthetic peptide. The reaction is measured by capturing the peptide substrate on a cation exchange paper filter plate and scintillation counting of emitted beta particles.
The kinase reactions (40 μL reaction volumes) are performed in 96-well V-bottom polystyrene plates. Reactions are initiated with the addition of Chk1 enzyme. […]
Following Chk1 enzyme addition, the reactions are incubated at room temperature for 90 min, and then terminated with the addition of 140 μL of phosphoric acid. […] After sitting for 4 h at room temperature, the radioactivity in the plate is measured using a MicroBeta Trilux microplate scintillation counter (Perkin Elmer).
For IC50 determination, the percent inhibition for each concentration is calculated using the scintillation count ratio from controls run on each plate. […] Absolute IC50 values are calculated from the resulting curve. […]

For `COc1nc(C)ccc1-c1cc(Nc2cncc(O[C@@H]3CCCNC3)n2)[nH]n1` [Example 2, (R)-[5-(2-Methoxy-6-mcethyl-pyridin-3-yl)-2H-pyrazol-3-yl]-[6-(piperidin-3-yloxy)-pyrazin-2-yl]-amine methane sulfonic acid salt], which IC50 is on record?
The IC50 was < 1 nM.
